These are yes or no findings as the source states them, for the method shown.
How the values were obtained:
Assay in all cases: SEC-MALS
[1] = target: HNF-1A DBD (HNF-1A 83-279), wild type (human) (UniProt P20823)
HNF-1A DBD/N266S (human) = HNF-1A DBD/N266S (human) (UniProt P20823)
HNF-1A DBD/R263C (human) = HNF-1A DBD/R263C (human) (UniProt P20823)

Protein sequences, listed by entry. Tags and fused reporters are not part of them. Lines headed by an entry give the natural chain unless they say otherwise; changes in a name come on top. Chains listed by the source or under a name are the forms on record and can include a tag or linker. Residues count along the entry.
HNF-1A DBD (HNF-1A 83-279), wild type (P20823, residues 83-279): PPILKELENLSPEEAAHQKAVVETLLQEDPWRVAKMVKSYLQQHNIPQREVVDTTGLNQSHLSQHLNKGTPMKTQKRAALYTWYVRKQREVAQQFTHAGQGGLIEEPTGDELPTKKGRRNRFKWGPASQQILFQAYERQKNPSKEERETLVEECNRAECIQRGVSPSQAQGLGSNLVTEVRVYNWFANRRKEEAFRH
HNF-1A DBD/N266S (P20823, form named): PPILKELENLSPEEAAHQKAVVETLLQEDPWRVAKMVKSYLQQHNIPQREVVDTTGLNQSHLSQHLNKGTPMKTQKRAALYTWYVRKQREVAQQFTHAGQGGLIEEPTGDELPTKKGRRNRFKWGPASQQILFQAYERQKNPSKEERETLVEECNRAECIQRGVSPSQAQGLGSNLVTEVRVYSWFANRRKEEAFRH
HNF-1A DBD/R263C (P20823, form named): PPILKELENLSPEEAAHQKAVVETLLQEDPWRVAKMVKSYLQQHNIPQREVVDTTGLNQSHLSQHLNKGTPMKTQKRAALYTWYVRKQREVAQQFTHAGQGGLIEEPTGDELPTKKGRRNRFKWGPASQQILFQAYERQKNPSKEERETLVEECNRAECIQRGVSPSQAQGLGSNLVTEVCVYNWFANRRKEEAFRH

“HNF-1A DBD (HNF-1A 83-279), wild type (from UniProt P20823 83-279) (domain or fragment)” was tested, and the binding [1] was “no binding (tested: 100 μg sample)”.

“HNF-1A DBD/N266S (from UniProt P20823 83-279) (domain or fragment)” was tested, and the binding (HNF-1A DBD/N266S (human)) was “no binding (tested: 100 μg sample)”.

“HNF-1A DBD/R263C (from UniProt P20823 83-279) (domain or fragment)” was tested, and the binding (HNF-1A DBD/R263C (human)) was “no binding (tested: 100 μg sample)”.
